# Assay results reported in the supplement of paper PMC12578635.
# ± gives the standard deviation of the averaged measurements. The list shows a part of the results. Repeats are few or missing, and single values can be far off.
# Tested on: RAW 264.7 macrophages infected with S. aureus JE2-lux
# Experiment: host macrophage viability (CellTiter-Fluor) relative to DMSO vehicle; higher = more viable host cells
# Conditions: 10 µM; treatment time 4 h; gentamicin 50 µg/ml
row,SMILES,host macrophage viability
1,CCCc1nnc(SCC(=O)Nc2cccc(C(F)(F)F)c2)n1-n1cccc1,120%
2,CCOc1ccccc1CNC(=O)C1CCCN(c2nc(C)nc3onc(C)c23)C1 (centres undefined),127%
3,CCOc1cccc2c1OC(c1cccnc1)N1N=C(c3cccs3)CC21 (centres undefined),119%
4,O=C(c1ccc2c(c1)OCCO2)C1CCN(C(=S)Nc2ccc(F)cc2)CC1,102%
5,COc1ccc(NC(C)=O)cc1NC(=O)c1cn(C)nc1OC,123%
6,Cc1cccc(-c2ccc(C(=O)NCC(C)C)cn2)c1,88.9%
7,COC(=O)C1=C(NC(=O)c2cc3ccccc3oc2=O)CCS1,110%
8,Cc1cc(NC(=O)CSc2nc(=O)cc(N)n2-c2ccc(F)cc2)no1,113%
9,CCN1CCCC1CNC(=O)C(=O)c1cn(CC(=O)N2CCCCCC2)c2ccccc12 (centres undefined),97.2%
10,COc1ccc2nc(NC(=O)CSc3ncccc3C(=O)O)sc2c1,108%
11,CCc1cccc2c(O)c(C(=O)NCc3cccnc3)cnc12,122%
12,Cc1nc2nc(Cc3cccc(F)c3)nn2c(O)c1C,119%
13,CC(C)c1csc(-c2csc(S(=O)(=O)Nc3ccc(Br)cc3F)c2)n1,129%
14,COc1ccc2c(Cl)c(C(=O)NCCC3=CCCCC3)sc2c1,112%
15,CCn1c(SCC(=O)Nc2ccccc2C(=O)OC)nc2cccnc21,105%
16,Cc1ccc(S(=O)(=O)Nc2cc(C(=O)N(C)Cc3ccccc3)cnc2N2CCNCC2)cc1C,136%
17,CC(NC(=O)c1ccccc1)c1nc(-c2ccc3c(c2)nnn3C)no1 (centres undefined),109%
18,CC(=O)NC(=O)c1cc2c(ccc3ccccc32)o/c1=N\c1ccc(F)cc1F,122%
19,Cc1oc(-c2ccccc2Cl)nc1CS(=O)(=O)CC(=O)NCc1ccc(F)cc1,84.6%
20,CCCCN1CCn2c(nc3cc(NC(=O)NC4CCCCC4)ccc32)C1,118%
21,Cc1ccc(S(=O)(=O)Nc2ccc3nncn3n2)cc1,121%
22,O=C(C1=C(O)C(=O)N(Cc2cccnc2)C1c1cccc(Br)c1)c1cccs1 (centres undefined),90.4%
23,COc1ccc(C(=O)NC2CCN(C(=O)NCc3ccccc3)CC2)cc1,99%

row,SMILES,host macrophage viability
1,CCCCSc1nc2c(cnn2-c2ccc(C)c(C)c2)c(=O)[nH]1,106%
2,O=C(CN1C(=O)c2ccccc2S1(=O)=O)NCc1ccc2c(c1)OCO2,115%
3,Cc1nc(OCC(=O)NC(C)(C)C)c2c(-c3cccc(F)c3)noc2n1,128%
4,Cc1cc(NC2CCCC2)n2ncc(-c3ccc(F)cc3)c2n1,103%
5,COC(=O)c1sc(-c2ccccc2)cc1NC(=O)c1ccc([N+](=O)[O-])s1,107 ± 8.7%
6,Fc1ccc(-c2csc3ncnc(Sc4nnnn4-c4ccccc4)c23)cc1,92.9%
7,Cc1ccccc1-n1cc(-c2ccccc2)c2c(NCCCN3CCOCC3)ncnc21,108%
8,COc1ccc(C2(NC(=O)C3OCOc4ccccc43)CCCCC2)cc1 (centres undefined),98.9%
9,COc1cccc(CNC(=O)CSc2nnc(-c3cc4ccccc4[nH]3)o2)c1,110%
10,CCN1CCN(CC(=O)Nc2ccc(Cl)c(Cl)c2)C(=O)C1=O,105%
11,O=S(=O)(Nc1ccc2cn[nH]c2c1)c1ccc(Br)cc1,129%
12,C#CCn1/c(=N/C(=O)c2cccc([N+](=O)[O-])c2)sc2cccc(F)c21,118%
13,COc1cccc2c(=O)cc(C)n(CC(=O)Nc3ccc(Br)cc3)c12,121%
14,O=C(CSc1ccc(-c2ccc(Cl)cc2)nn1)NCCc1c[nH]c2ccccc12,110%
15,CCOc1ccc(NC(=O)COc2cccc3c2CCN(C)C3=O)cc1,124%
16,COc1cc(/C=N/NC(=O)CN2CCOCC2)ccc1O,99.3 ± 4.3%
17,O=C1Cc2cc(NC(=O)c3cc4ccccc4oc3=O)ccc2N1,115%
18,CC(C)N1CCC(CNC(=O)c2ccc3c(c2)NC(=O)C(C)(C)O3)CC1,119%
19,Cc1nc2nc(Cc3cccc(F)c3)nn2c(N2CCN(c3ccccn3)CC2)c1C,119%
20,O=C(Cn1cnc2c(nnn2Cc2ccc(F)cc2)c1=O)Nc1ccccc1C(F)(F)F,104 ± 8%
21,COc1ccc(-c2n[nH]c3nc(-c4ccc(Cl)cc4)cc(C(=O)NCc4ccc(C)cc4)c23)cc1,103%
22,Cc1nn(Cc2c(F)cccc2Cl)c(=O)c2noc(C)c12,94.9%
23,C=CCn1c(SCC(=O)Nc2sc3c(c2C(=O)OCC)CCC3)nc2ccccc2c1=O,118 ± 7.6%

row,SMILES,host macrophage viability
1,CCOC(=O)c1c(C)oc2ncn(Cc3ccccc3)c(=O)c12,108%
2,COc1ccccc1N1C(=O)N(c2ccccc2Cl)C2CS(=O)(=O)CC21 (centres undefined),126%
3,O=C1NC2=C(C(=O)N(CCO)C2)C(c2ccc(OCc3ccccc3)cc2)N1 (centres undefined),108%
4,CC(=O)C(C)n1c(=O)c2c(nc3n(-c4ccc(F)cc4)c(-c4ccccc4)cn23)n(C)c1=O (centres undefined),113%
5,Cc1cc(-c2csc(S(=O)(=O)Nc3cccc(Br)c3)c2)on1,119%
6,CC12CC(NC(=O)N1c1cccc(C(=O)O)c1)c1cc(Br)ccc1O2 (centres undefined),117%
7,Cc1c(C(=O)Nc2c(C(=O)Nc3ccc4c(c3)OCCO4)oc3ccccc23)cccc1[N+](=O)[O-],111%
8,O=C(O)c1ccc(C(=O)NCC2CCCO2)c(C(=O)O)c1 (centres undefined),123%
9,O=C(Nc1cc(-c2cccs2)nnc1O)C1CCC1,118%
10,CCNC(=O)c1n[nH]c2c1CCc1cc(OC)ccc1-2,125%
11,Cc1ccc(N2CC(C(=O)N3CCN(c4ncnc5c4nnn5-c4ccc(C)cc4)CC3)CC2=O)cc1 (centres undefined),122%
12,O=C(O)CCn1nc(Nc2ccccc2)n(-c2ccccc2)c1=S,105 ± 1.1%
13,COCCn1c(SCC(=O)N2CCc3ccccc32)nc2cccnc21,109%
14,COc1ccc2nc(NC(=O)CSc3nnc4nc(C)cc(C)n34)sc2c1,109%
15,CSc1ccc(NC(=O)NCCc2ccncc2)cc1,107%
16,COc1cccc(-c2cc3nc(C)c(Cl)c(O)n3n2)c1,121%
17,COCCCNc1c(-c2ccc(C)cc2)nc2sc3cc(C)ccc3n12,80.2%
18,Cc1nc(SCC(=O)NCc2ccco2)[nH]c(=O)c1C,124%
19,O=C(NC(=O)c1ccc(F)cc1)Nc1ccncc1,145%
20,CCn1cc(SCC(=O)Nc2ccc(OC)cc2)c2ccccc21,127%
21,COc1ccc(CN2C(=O)c3cccc4cccc(c34)C2=O)cc1,125%
22,O=C(Nc1ccc(F)cc1F)c1cccnc1-c1ccsc1,106%
23,CCOC(=O)c1ccc(/N=c2\oc3ccc(OC)cc3cc2C(N)=O)cc1,117 ± 6.4%

# As a working copy, part of the list above:
row,SMILES,host macrophage viability
3,O=C1NC2=C(C(=O)N(CCO)C2)C(c2ccc(OCc3ccccc3)cc2)N1 (centres undefined),108%
4,CC(=O)C(C)n1c(=O)c2c(nc3n(-c4ccc(F)cc4)c(-c4ccccc4)cn23)n(C)c1=O (centres undefined),113%
5,Cc1cc(-c2csc(S(=O)(=O)Nc3cccc(Br)c3)c2)on1,119%
6,CC12CC(NC(=O)N1c1cccc(C(=O)O)c1)c1cc(Br)ccc1O2 (centres undefined),117%
7,Cc1c(C(=O)Nc2c(C(=O)Nc3ccc4c(c3)OCCO4)oc3ccccc23)cccc1[N+](=O)[O-],111%
